{"source": "PubChem BioAssay AID720505, Drosophila RNAi Screening Center – 2013", "screen": "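Genes needed for store-operated calcium entry in fly cells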 (primary screen)", "cells": "Drosophila S2R+ cells", "reagents": "long dsRNA against Drosophila genes", "challenge": "thapsigargin (2 µM) in calcium-free buffer to empty internal stores, then 2 mM calcium added back", "read-out": "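Stores emptied by 2 µM thapsigargin without calcium, then 2 mM calcium re-added; fluo-4 fluorescence followed by FLIPR in 384-well plates, per-well averaged endpoint, raw; two screen passes, some wells retested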", "reading the numbers": "calcium signal and retest calcium signal: higher = more calcium entry after store depletion", "hit rule": "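Knock-downs counted as hits when calcium entry dropped relative to STIM1 positive and Rho1 negative controls present on each plate; roughly 1500 genes called, with reductions of differing size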", "meaning of the calls": "active = called as lowering calcium entry; inactive = not called", "note": "In all, the deposit lists about 20,000 reagents; this is an unselected part of those that have a named target and a result. Over the whole deposit, about 2,100 (10%) were called active. 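Raw plate signals without normalisation; calls rest on control-based scores that were not deposited; replicate 2 separates called from uncalled poorly.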 Reagents against one gene are numbered here. Not stated in the record: the amount of reagent, the time to read-out."}
{"gene": "Prosbeta5R2 (Proteasome beta5 subunit-related 2)", "reagent": 1, "calcium signal, replicate 1": 210, "calcium signal, replicate 2": 111, "Outcome": "inactive"}
{"gene": "st (scarlet)", "reagent": 1, "calcium signal, replicate 1": 97.8, "calcium signal, replicate 2": 90.7, "Outcome": "inactive"}
{"gene": "CG6583", "reagent": 1, "calcium signal, replicate 1": 61.6, "calcium signal, replicate 2": 166, "Outcome": "active"}
{"gene": "Rab1", "reagent": 1, "calcium signal, replicate 1": 116, "calcium signal, replicate 2": 85.6, "Outcome": "inactive"}
{"gene": "Ack-like (Activated Cdc42 kinase-like)", "reagent": 1, "calcium signal, replicate 1": 152, "calcium signal, replicate 2": 124, "Outcome": "inactive"}
{"gene": "Ack-like (Activated Cdc42 kinase-like)", "reagent": 2, "calcium signal, replicate 1": 80.5, "calcium signal, replicate 2": 126, "Outcome": "inactive"}

Only “calcium signal, replicate 2” (2 entries from above):
Rab1 = 85.6
Ack-like (Activated Cdc42 kinase-like) #1 = 124

The listing continues:
{"gene": "CG1077", "reagent": 1, "calcium signal, replicate 1": 102, "calcium signal, replicate 2": 124, "retest calcium signal, replicate 1": 93.4, "retest calcium signal, replicate 2": 86.1, "Outcome": "inactive"}
{"gene": "E(spl)m4-BFM (Enhancer of split m4, Bearded family member)", "reagent": 1, "calcium signal, replicate 1": 294, "calcium signal, replicate 2": 118, "Outcome": "inactive"}
{"gene": "CG43707", "reagent": 1, "calcium signal, replicate 1": 182, "calcium signal, replicate 2": 96.4, "Outcome": "inactive"}
{"gene": "CG43707", "reagent": 2, "calcium signal, replicate 1": 59.7, "calcium signal, replicate 2": 98, "Outcome": "active"}
{"gene": "CG43707", "reagent": 3, "calcium signal, replicate 1": 105, "calcium signal, replicate 2": 178, "Outcome": "inactive"}
{"gene": "CG34409", "reagent": 1, "calcium signal, replicate 1": 151, "calcium signal, replicate 2": 103, "Outcome": "inactive"}
{"gene": "CG34409", "reagent": 2, "calcium signal, replicate 1": 258, "calcium signal, replicate 2": 90.7, "Outcome": "inactive"}
